In patent US20090196930A1, “AEROSOLIZED NITRITE AND NITRIC OXIDE -DONATING COMPOUNDS AND USES THEREOF” (Aires Pharmaceuticals, Inc., priority 2007, published 2009):

O=NO [sodium nitrite]
Duration (Aeroneb Go, 277.8 mg loaded): 6.2 ± 1.1 min
FPD % (Aeroneb Go, 277.8 mg loaded): 14.4 ± 2.0%
Fine Particle Dose (Aeroneb Go, 277.8 mg loaded): 39.9 ± 5.2 mg
Inspired Dose (Aeroneb Go, 277.8 mg loaded): 74.6 ± 10.6 mg
Output (FPD/Min) (Aeroneb Go, 277.8 mg loaded): 6.5 ± 0.6 FPD/Min
Total Recovered (Aeroneb Go, 277.8 mg loaded): 97.5 ± 10.9 mg
Ultra Fine Particle Dose (Aeroneb Go, 277.8 mg loaded): 25.3 ± 3.6 mg
Residual Dose (Aeroneb Go, 277.8 mg loaded, only drug within the medication cup): 22.9 ± 4.8 mg
Duration (I-neb, 83.3 mg loaded): 12.5 ± 1.0 min
FPD % (I-neb, 83.3 mg loaded): 48.8 ± 1.9%
Fine Particle Dose (I-neb, 83.3 mg loaded): 40.7 ± 1.4 mg
Inspired Dose (I-neb, 83.3 mg loaded): 78.2 ± 3.0 mg
Output (FPD/Min) (I-neb, 83.3 mg loaded): 3.3 ± 0.2 FPD/Min
Residual Dose (I-neb, 83.3 mg loaded): 5.4 ± 0.8 mg
Total Recovered (I-neb, 83.3 mg loaded): 83.6 ± 2.7 mg
Ultra Fine Particle Dose (I-neb, 83.3 mg loaded): 21.5 ± 0.8 mg
Duration (PARI STAR, 277.8 mg loaded): 19.5 ± 0.7 min
Expired Dose (PARI STAR, 277.8 mg loaded): 49.5 ± 7.2 mg
FPD % (PARI STAR, 277.8 mg loaded): 32.4 ± 3.1%
Fine Particle Dose (PARI STAR, 277.8 mg loaded): 89.9 ± 7.8 mg
Inspired Dose (PARI STAR, 277.8 mg loaded): 106.3 ± 10.1 mg
Output (FPD/Min) (PARI STAR, 277.8 mg loaded): 4.6 ± 0.4 FPD/Min
Residual Dose (PARI STAR, 277.8 mg loaded): 115.4 ± 14.6 mg
Total Recovered (PARI STAR, 277.8 mg loaded): 271.2 ± 6.5 mg
Ultra Fine Particle Dose (PARI STAR, 277.8 mg loaded): 73.6 ± 7.0 mg

Like-named read-outs stand apart in the source and are kept apart here.
